Test results taken from patent US7186551B1, “3′-phosphoadenosine -5′-phosphosulfate synthetase 2 (PAPSS2) sequence variants” (Mayo Foundation for Medical Education and Research, priority 2001, dated 2007).

Tested on: PAPSS2
Assay: Substrate kinetic studies of recombinant PAPSS2 with ATP and Na2SO4
Format: biochemical, human
Details: for Kinetic model, ATP: ATP varied 0.125-4 mM, Na2SO4 4 mM; for Kinetic model, Na2SO4: Na2SO4 varied 0.125-16 mM, ATP 1 mM
Procedure: To estimate apparent Km values of PAPSS2 for the two reaction cosubstrates, a series of ATP (0.125–4 mM) and Na2SO4 (0.125–16 mM) concentrations were tested with the recombinant allozymes. When ATP was the varied substrate, the concentration of Na2SO4 was 4 mM, and when Na2SO4 was the varied substrate, the concentration of ATP was 1 mM. Blanks for each substrate concentration were included by assaying COS-1 cell cytosol after transfection with empty vector.
Data Analysis: Apparent Km values were calculated by using the method of Wilkinson with a computer program written by Cleland. Wilkinson, Biochem. J., 80:324–332 (1961); and Cleland, Nature, 198:[…] (1963). Statistical comparisons of data were performed by ANOVA with the StatView program, version 4.5 (Abacus Concepts, Inc., Berkeley, Calif.). Apparent Km, S50 and Vmax values for the wild-type and variant PAPSS2 allozymes were compared by the use of unpaired Student's t-test.
Alterations in amino acid sequence can alter enzyme substrate affinity and/or catalytic efficiency. Decreased activity of the Val291Met allozyme—without a significant alteration in level of enzyme protein—could have resulted from a change in substrate kinetics. Therefore, a series of ATP (0.125–4 mM) and Na2SO4 (0.125–16 mM) concentrations were used to estimate apparent Km values for recombinant wild type PAPSS2 and for the Val291Met variant allozyme. […] ATP concentrations at which 50% maximal velocity was achieved (S50 values) were 0.70 and 0.95 mM for the wild type and variant allozymes, respectively (Table 4). In both cases, the Hill coefficient was greater than 2, […]. In contrast, substrate kinetics of both allozymes for Na2SO4 conformed to Michaelis-Menten predictions (FIG. 5B). […] In summary, decreased activity for the Val1291Met variant appeared to result from an alteration in substrate kinetics, while decreased activity for the Glu10Lys allozyme, in contrast, resulted primarily from a decrease in the quantity of enzyme protein. Because the Val291Met variant was encoded by a construct that contained the most common PAPSS2 nonsynonymous cSNP, these observations could have functional implications for the sulfate conjugation of both endogenous and/or exogenous compounds.

B1: wild type: reference human PAPSS2 polypeptide (SEQ ID NO:9, GenBank AF091242), recombinantly expressed in COS-1 cells (protein, listed as Homo sapiens)
chain: MSGIKKQKTENQQKSTNVVYQAHHVSRNKRGQVVGTRGGFRGCTVWLTGLSGAGKTTISFALEEYLVSHAIPCYSLDGDNVRHGLNRNLGFSPGDREENIRRIAEVAKLFADAGLVCITSFISPFAKDRENARKIHESAGLPFFEIFVDAPLNICESRDVKGLYKRARAGEIKGFTGIDSDYEKPETPERVLKTNLSTVSDCVHQVVELLQEQNIVPYTIIKDIHELFVPENKLDHVRAEAETLPSLSITKLDLQWVQVLSEGWATPLKGFMREKEYLQVMHFDTLLDDGVINMSIPIVLPVSAEDKTRLEGCSKFVLAHGGRRVAILRDAEFYEHRKEERCSRVWGTTCTKHPHIKMVMESGDWLVGGDLQVLEKIRWNDGLDQYRLTPLELKQKCKEMNADAVFAFQLRNPVHNGHALLMQDTCRRLLERGYKHPVLLLHPLGGWTKDDDVPLDWRMKQHAAVLEEGVLDPKSTIVAIFPSPMLYAGPTEVQWHCRSRMIAGANFYIVGRDPAGMPHPETKKDLYEPTHGGKVLSMAPGLTSVEIIPFRVAAYNKAKKAMDFYDPARHNEFDFISGTRMRKLAREGENPPDGFMAPKAWKVLTDYYRSLEKN
  Kinetic model, ATP: Allosteric
  Kinetic model, Na2SO4: Michaelis-Menten

B2: Val291Met: PAPSS2 polypeptide allozyme having a methionine at amino acid 291 in place of valine (adenine at nucleotide 871) (protein)
chain: MSGIKKQKTENQQKSTNVVYQAHHVSRNKRGQVVGTRGGFRGCTVWLTGLSGAGKTTISFALEEYLVSHAIPCYSLDGDNVRHGLNRNLGFSPGDREENIRRIAEVAKLFADAGLVCITSFISPFAKDRENARKIHESAGLPFFEIFVDAPLNICESRDVKGLYKRARAGEIKGFTGIDSDYEKPETPERVLKTNLSTVSDCVHQVVELLQEQNIVPYTIIKDIHELFVPENKLDHVRAEAETLPSLSITKLDLQWVQVLSEGWATPLKGFMREKEYLQVMHFDTLLDDGMINMSIPIVLPVSAEDKTRLEGCSKFVLAHGGRRVAILRDAEFYEHRKEERCSRVWGTTCTKHPHIKMVMESGDWLVGGDLQVLEKIRWNDGLDQYRLTPLELKQKCKEMNADAVFAFQLRNPVHNGHALLMQDTCRRLLERGYKHPVLLLHPLGGWTKDDDVPLDWRMKQHAAVLEEGVLDPKSTIVAIFPSPMLYAGPTEVQWHCRSRMIAGANFYIVGRDPAGMPHPETKKDLYEPTHGGKVLSMAPGLTSVEIIPFRVAAYNKAKKAMDFYDPARHNEFDFISGTRMRKLAREGENPPDGFMAPKAWKVLTDYYRSLEKN
  Kinetic model, ATP: Allosteric
  Kinetic model, Na2SO4: Michaelis-Menten
